Data as given in PubChem BioAssay AID504774 (Drosophila RNAi Screening Center, 2011).

Aim: 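Fly genes whose loss alters survival after alkylation damage to DNA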 (primary screen)
Cell system: Drosophila Kc167 cells
Reagents: long dsRNA against Drosophila genes, about 0.25 µg dsRNA per well
Timing: about 6 days: 3 days knock-down, then 3 days with or without MMS
Conditions: methyl methanesulphonate 0.004% (w/v) for 3 days after knock-down
Detection: 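Viability in wells given MMS, read as ATP luminescence, normalised by quantiles plate by plate and averaged across replicates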
Direction: mean viability with MMS: higher = more surviving cells after MMS
In all, the deposit lists about 23,000 reagents; below is an unselected part of those that have a named target and a result. 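Values are quantile-normalised luminescence on an arbitrary scale; higher means more cells surviving MMS.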 A plus sign joins genes that one reagent is predicted to hit. Further read-outs or replicates are left out here.

mean viability with MMS, by gene knocked down and reagent
Vps51: DRSC06519 3.53e6
Jon65Aiii: DRSC10649 3.74e6
Pka-R1: DRSC11674 3.49e6; DRSC11875 3.51e6
Jon65Ai: DRSC09731 3.75e6
Ogg1: DRSC17738 3.35e6
Alg13: DRSC14864 3.62e6
Cpr12A: DRSC19722 3.63e6
CG13003: DRSC19522 3.60e6
CG18302: DRSC02663 3.42e6
jumu: DRSC16651 3.45e6
CG31933: DRSC00457 3.46e6
Rev1: DRSC08264 3.39e6
rempA: DRSC00327 3.54e6
CG9759: DRSC16558 3.36e6
CG11106: DRSC19381 3.60e6
His2B:CG33870 + His2B:CG33868 + His2B:CG33882 + 21 more: DRSC03757 3.02e6
CAH16: DRSC15371 3.25e6
sphinx1: DRSC10993 3.51e6
Der-1: DRSC00301 3.56e6
CG6865: DRSC10732 3.33e6
Pxt: DRSC17040 3.56e6
Obp58d: DRSC04162 3.65e6
Boh2: DRSC02777 3.57e6
Got1: DRSC07177 3.57e6
Ziz: DRSC02506 3.43e6; DRSC02976 3.24e6
CR18275 + CR18166 + CG32817: DRSC17249 3.56e6
Rab3GAP1: DRSC00291 3.47e6; DRSC00703 3.55e6
CG17233: DRSC10259 3.33e6
RpL24: DRSC03185 3.18e6
Hr38: DRSC03345 3.12e6; DRSC23230 3.32e6
CG11147: DRSC02129 3.38e6
CG34297: DRSC12410 3.64e6
SNRPG: DRSC20207 3.29e6

Records above whose target name begins with J or j (3):
mean viability with MMS, by gene knocked down and reagent
Jon65Aiii: DRSC10649 3.74e6
Jon65Ai: DRSC09731 3.75e6
jumu: DRSC16651 3.45e6

Next results follow:
mean viability with MMS, by gene knocked down and reagent
tty: DRSC20588 3.67e6
Nup153: DRSC19904 3.13e6
CG34427: DRSC09978 3.53e6
mus101: DRSC19388 3.52e6
CG13474: DRSC10018 3.38e6
CG43740: DRSC17994 3.68e6; DRSC23267 3.62e6
SmD1: DRSC09800 3.21e6
ng1: DRSC18802 3.51e6
SdhC: DRSC16088 3.57e6
Cpsf160: DRSC05968 3.50e6
Jon99Cii: DRSC16858 4.22e6; DRSC22574 3.55e6
lectin-33A: DRSC02529 3.65e6; DRSC22116 3.28e6
Non1: DRSC05954 3.49e6
CG14829: DRSC10199 3.78e6
CG3123: DRSC00570 3.28e6
Ns4: DRSC03199 3.44e6
nahoda: DRSC03954 3.58e6; DRSC04126 3.79e6
Cyp6a2: DRSC05014 3.21e6
CG5808: DRSC14124 3.42e6
mRpL13: DRSC02076 3.69e6
DptB: DRSC06001 3.55e6
CG11586: DRSC08203 3.66e6
CG13727: DRSC10055 3.71e6
CG15260: DRSC01977 3.60e6
Mtk: DRSC07475 3.55e6
CG4896: DRSC00671 3.66e6
Tgi: DRSC09793 3.52e6; DRSC09794 3.55e6
CG34266: DRSC08323 3.54e6
CG18327: DRSC06722 3.43e6
CG3704: DRSC18174 3.58e6; DRSC18645 3.62e6
CG5880: DRSC15906 3.59e6
CG1896: DRSC15397 3.61e6
eIF3d2: DRSC15651 3.50e6
Sgs5: DRSC16862 3.48e6
lark: DRSC11362 3.27e6
Ubc84D: DRSC12610 3.50e6
stretch (retired record): DRSC14347 3.05e6; DRSC14512 3.61e6; DRSC14541 3.72e6; DRSC14542 3.56e6; DRSC14543 3.62e6; DRSC23038 3.65e6
CG12608: DRSC19472 3.71e6
spab: DRSC07112 3.69e6
